# Publication PMC5996148
# This is one part of the list. For some assays here: Construct or isoform of the protein are uncertain.
# Key:
# Assay in all cases: protein microarray (ProtoArray v5.0), streptavidin-Alexa Fluor 647
# Conditions in all cases: 3'-biotin; 20 mM Tris (pH 7.5), 5 mM MgCl2, 100 mM KCl, 0.1% Tween-20, A/T-rich and random oligonucleotide blockers; temperature not stated; high values mean tight binding
# IGL@ (human) = system: IGL@ (human)
# IGLV2-14 (human) = system: IGLV2-14 (human)
# IGSF1 (human) = system: IGSF1 (human)
# IL17A (human) = system: IL17A (human)
# IL18BP (human) = system: IL18BP (human)
# IL1B (human) = system: IL1B (human)
# IL1F8 (human) = system: IL1F8 (human)
# IL1RN (human) = system: IL1RN (human)
# IL22 (human) = system: IL22 (human)
# IL27 (human) = system: IL27 (human)
# IL32 (human) = system: IL32 (human)
# IL5 (human) = system: IL5 (human)
# IL7 (human) = system: IL7 (human)
# ILVBL (human) = system: ILVBL (human)
# INDO (human) = system: INDO (human)
# ING3 (human) = system: ING3 (human)
# INPP1 (human) = system: INPP1 (human)
# INVS (human) = system: INVS (human)
# IPPK = biological target: T1, IPPK (UniProt Q9H8X2)
# T1 sequence: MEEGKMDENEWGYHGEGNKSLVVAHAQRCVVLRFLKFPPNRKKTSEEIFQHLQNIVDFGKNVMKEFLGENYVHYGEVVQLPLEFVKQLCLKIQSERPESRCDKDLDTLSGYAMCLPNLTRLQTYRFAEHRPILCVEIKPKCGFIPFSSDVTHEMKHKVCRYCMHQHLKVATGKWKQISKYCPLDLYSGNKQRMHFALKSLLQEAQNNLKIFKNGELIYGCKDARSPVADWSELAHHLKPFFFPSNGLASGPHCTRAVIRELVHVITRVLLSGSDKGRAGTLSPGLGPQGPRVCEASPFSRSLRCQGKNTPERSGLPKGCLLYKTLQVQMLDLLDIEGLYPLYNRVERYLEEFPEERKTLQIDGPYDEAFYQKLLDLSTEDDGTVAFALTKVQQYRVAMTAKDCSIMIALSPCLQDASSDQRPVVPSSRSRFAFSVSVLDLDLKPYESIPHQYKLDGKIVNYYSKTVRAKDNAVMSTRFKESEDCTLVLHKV
# IRF3 (human) = system: IRF3 (human)
sequence,measurement,setting,value
GGGGACAGGGGTATGGGGAGGGG [G4-3 biotinylated (CtG)],binding signal,IGL@ (human),-0.34 z-score
same,binding signal,IGLV2-14 (human),-0.329 z-score
same,binding signal,IGSF1 (human),-0.317 z-score
same,binding signal,IL17A (human),-0.33 z-score
same,binding signal,IL18BP (human),-0.333 z-score
same,binding signal,IL1B (human),-0.342 z-score
same,binding signal,IL1F8 (human),-0.336 z-score
same,binding signal,IL1RN (human),-0.328 z-score
same,binding signal,IL22 (human),-0.32 z-score
same,binding signal,IL27 (human),-0.314 z-score
same,binding signal,IL32 (human),-0.308 z-score
same,binding signal,IL5 (human),-0.334 z-score
same,binding signal,IL7 (human),-0.327 z-score
same,binding signal,ILVBL (human),-0.321 z-score
same,binding signal,INDO (human),-0.335 z-score
same,binding signal,ING3 (human),-0.316 z-score
same,binding signal,INPP1 (human),-0.328 z-score
same,binding signal,INVS (human),-0.316 z-score
same,binding signal,IPPK,3.42 z-score
same,binding signal,IRF3 (human),-0.301 z-score

# Another view of some results above.
sequence | measurement | setting | value
GGGGACAGGGGTATGGGGAGGGG [G4-3 biotinylated (CtG)] | binding signal | IL1RN (human) | -0.328 z-score
same | binding signal | IL22 (human) | -0.32 z-score
